PubChem BioAssay AID743454 | Peter MacCallum Cancer Centre – 2014
Test: 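Knock-downs lowering viability or raising caspase 3/7 activity in vorinostat-treated resistant cells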 (primary screen). Cells: human HCT116-VR colon cancer cells, selected for vorinostat resistance. Knock-down reagent: siRNA pool against human genes, 40 nM siRNA pool. Duration: vorinostat for 24 h, read-out about 72 h after transfection. Conditions: vorinostat at 2.5 µM final. Measurement: 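Two measures, CellTiter-Fluor viability and luminescent caspase 3/7 activity, each as fold change against same-plate mock wells, mean of duplicates, then screen-wide robust z-score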. Reading the numbers: viability robust z-score: higher = more viable cells than screen typical; caspase robust z-score: higher = more caspase 3/7 activity than screen typical. Rule for the call: 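a knock-down is a hit when classed RV1 or RV2 for lowered viability, or CA1 or CA2 for caspase activation; those lethal without drug were dropped; hits were retested singly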.
The whole screen tested about 18,000 reagents; shown is a part drawn at random. 450 of all reagents (2.5%) count as active. 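Single biological run; no consistent viability z cut-off exists, so the class columns, not z-scores, define the calls.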 A number with no mark means an inactive call. No sequences are given here.

| gene | viability hit class | caspase hit class | viability robust z-score | caspase robust z-score |
| --- | --- | --- | --- | --- |
| OSTCP1 | no change | no change | 0.64 | -0.14 |
| GBP7 | no change | no change | -0.31 | 2.48 |
| DFFA | no change | no change | 0.76 | 0.94 |
| AP2B1 | no change | no change | -0.15 | -0.18 |
| PAPPA | no change | no change | 1.19 | 3.42 |
| TMEM236 | no change | no change | 0.62 | -0.82 |
| MAPRE1 | no change | no change | 0.86 | -0.32 |
| MROH5 | no change (active) | CA1 (caspase activation) | 0.9 | 6.08 |
| OSGIN1 | no change | no change | -0.24 | -0.28 |
| WDR53 | no change | no change | -0.44 | -1.22 |
| ADAMTS7 | no change | no change | -0.62 | 0.08 |
| COL18A1 | no change | no change | -0.21 | -0.06 |
| HCN1 | no change | no change | 0.96 | -0.14 |
| HSD17B2 | no change | no change | 0.71 | 1.27 |
| MIDEAS | no change (active) | CA1 (caspase activation) | -0.23 | 7.98 |
| CARF | no change | no change | -0.36 | 2.83 |
| AGAP6 | no change | no change | -0.46 | -0.14 |
| OR2AT4 | no change | no change | 0.12 | -0.11 |
| PHACTR1 | no change | no change | -0.26 | -0.45 |
| MGAM | no change | no change | 0.57 | -0.52 |
| IGSF10 | no change | no change | -1.18 | 2.39 |
| FKBP1B | no change | no change | 1.66 | 0.54 |
| TMEM87B | no change | no change | 0.36 | 0.12 |
| VSIG4 | no change | no change | -0.32 | 0.37 |
| CSF2RA | no change | no change | -0.14 | -0.78 |
| FGB | no change | no change | 0.05 | -1.16 |
| IL1RAP | no change | no change | 0.24 | 4.77 |
| CYP17A1 | no change | no change | -0.19 | -0.69 |
| SUCLA2 | no change | no change | 0.26 | -0.23 |
| FGFR2 | no change | no change | 0.02 | 2.38 |
| PKD2 | no change | no change | -0.48 | 2.17 |
| RHOT1 | no change | no change | 1.23 | -0.44 |
| POU6F1 | no change | no change | 0.02 | -0.47 |
| APEX2 | no change | no change | 1.58 | -0.64 |
| PFKM | no change | no change | -0.94 | -0.72 |
| MCCC2 | no change | no change | 0.41 | -0.76 |
| ABHD12B | no change | no change | -0.26 | 0.05 |
| ARHGAP4 | no change | no change | 1.26 | -0.34 |
| HDGFL3 | no change | no change | 0.98 | 0.7 |
| CNPY4 | no change | no change | -0.55 | -0.81 |
| PRPF38A | RV2 (reduced viability) (active) | no change | -3.34 | -0.35 |
| KCNK7 | no change | no change | 0.25 | 2.1 |
| CAMK2N2 | no change | no change | 0.31 | 1.02 |
| NKG7 | no change | no change | 0.45 | 0.08 |
| RIOX2 | no change | no change | 0.18 | -0.31 |
| ZNF385B | no change | no change | -0.22 | -0.39 |
| TRMT10C | no change | no change | 0.38 | -0.84 |
| CRTAM | no change | no change | 1 | 0.22 |
| RHOC | no change | no change | -0.76 | 0.06 |
| IL1RAPL1 | no change | no change | 0.62 | -0.94 |
| BCL7A | no change | no change | 1.46 | 3.9 |
| ZNF546 | no change | no change | 0.1 | -0.94 |
| MYO9A | no change | no change | -0.01 | -0.43 |
| RUBCNL | no change | no change | 0.48 | -0.11 |
| BCKDK | no change | no change | 0.53 | -0.11 |
| IKBKB | no change | no change | -1.01 | 1.92 |
| SPATC1L | no change | no change | -1.5 | -0.74 |

Entries above whose gene name starts with F or f (3):
| gene | viability hit class | caspase hit class | viability robust z-score | caspase robust z-score |
| --- | --- | --- | --- | --- |
| FKBP1B | no change | no change | 1.66 | 0.54 |
| FGB | no change | no change | 0.05 | -1.16 |
| FGFR2 | no change | no change | 0.02 | 2.38 |
